Reference: article PMC5461506, “Strength of Neisseria meningitidis binding to endothelial cells requires highly-ordered CD147/β2-adrenoceptor clusters assembled by alpha-actinin-4” (Nature Communications, 2017)
No constants are given. Whether binding was seen depends on the method and setting. In cells and extracts the contact can be indirect. These calls come from enrichment with a bait or labelling near it, and not all partners need be listed.

Chains of the proteins cited; added tags and fusions are not shown. Lines headed by an entry give the natural chain unless they say otherwise; changes in a name come on top.
UniProt P35613: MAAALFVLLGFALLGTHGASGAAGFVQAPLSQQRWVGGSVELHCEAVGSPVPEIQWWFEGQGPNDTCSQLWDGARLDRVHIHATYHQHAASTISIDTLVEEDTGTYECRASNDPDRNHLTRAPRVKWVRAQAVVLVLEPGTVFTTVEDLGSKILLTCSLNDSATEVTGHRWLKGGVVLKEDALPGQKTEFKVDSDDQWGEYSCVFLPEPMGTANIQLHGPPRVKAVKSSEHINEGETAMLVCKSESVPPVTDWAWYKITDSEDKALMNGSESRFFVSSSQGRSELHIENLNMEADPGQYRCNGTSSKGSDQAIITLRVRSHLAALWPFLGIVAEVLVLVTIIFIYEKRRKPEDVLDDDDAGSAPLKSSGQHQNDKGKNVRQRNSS
UniProt P21333: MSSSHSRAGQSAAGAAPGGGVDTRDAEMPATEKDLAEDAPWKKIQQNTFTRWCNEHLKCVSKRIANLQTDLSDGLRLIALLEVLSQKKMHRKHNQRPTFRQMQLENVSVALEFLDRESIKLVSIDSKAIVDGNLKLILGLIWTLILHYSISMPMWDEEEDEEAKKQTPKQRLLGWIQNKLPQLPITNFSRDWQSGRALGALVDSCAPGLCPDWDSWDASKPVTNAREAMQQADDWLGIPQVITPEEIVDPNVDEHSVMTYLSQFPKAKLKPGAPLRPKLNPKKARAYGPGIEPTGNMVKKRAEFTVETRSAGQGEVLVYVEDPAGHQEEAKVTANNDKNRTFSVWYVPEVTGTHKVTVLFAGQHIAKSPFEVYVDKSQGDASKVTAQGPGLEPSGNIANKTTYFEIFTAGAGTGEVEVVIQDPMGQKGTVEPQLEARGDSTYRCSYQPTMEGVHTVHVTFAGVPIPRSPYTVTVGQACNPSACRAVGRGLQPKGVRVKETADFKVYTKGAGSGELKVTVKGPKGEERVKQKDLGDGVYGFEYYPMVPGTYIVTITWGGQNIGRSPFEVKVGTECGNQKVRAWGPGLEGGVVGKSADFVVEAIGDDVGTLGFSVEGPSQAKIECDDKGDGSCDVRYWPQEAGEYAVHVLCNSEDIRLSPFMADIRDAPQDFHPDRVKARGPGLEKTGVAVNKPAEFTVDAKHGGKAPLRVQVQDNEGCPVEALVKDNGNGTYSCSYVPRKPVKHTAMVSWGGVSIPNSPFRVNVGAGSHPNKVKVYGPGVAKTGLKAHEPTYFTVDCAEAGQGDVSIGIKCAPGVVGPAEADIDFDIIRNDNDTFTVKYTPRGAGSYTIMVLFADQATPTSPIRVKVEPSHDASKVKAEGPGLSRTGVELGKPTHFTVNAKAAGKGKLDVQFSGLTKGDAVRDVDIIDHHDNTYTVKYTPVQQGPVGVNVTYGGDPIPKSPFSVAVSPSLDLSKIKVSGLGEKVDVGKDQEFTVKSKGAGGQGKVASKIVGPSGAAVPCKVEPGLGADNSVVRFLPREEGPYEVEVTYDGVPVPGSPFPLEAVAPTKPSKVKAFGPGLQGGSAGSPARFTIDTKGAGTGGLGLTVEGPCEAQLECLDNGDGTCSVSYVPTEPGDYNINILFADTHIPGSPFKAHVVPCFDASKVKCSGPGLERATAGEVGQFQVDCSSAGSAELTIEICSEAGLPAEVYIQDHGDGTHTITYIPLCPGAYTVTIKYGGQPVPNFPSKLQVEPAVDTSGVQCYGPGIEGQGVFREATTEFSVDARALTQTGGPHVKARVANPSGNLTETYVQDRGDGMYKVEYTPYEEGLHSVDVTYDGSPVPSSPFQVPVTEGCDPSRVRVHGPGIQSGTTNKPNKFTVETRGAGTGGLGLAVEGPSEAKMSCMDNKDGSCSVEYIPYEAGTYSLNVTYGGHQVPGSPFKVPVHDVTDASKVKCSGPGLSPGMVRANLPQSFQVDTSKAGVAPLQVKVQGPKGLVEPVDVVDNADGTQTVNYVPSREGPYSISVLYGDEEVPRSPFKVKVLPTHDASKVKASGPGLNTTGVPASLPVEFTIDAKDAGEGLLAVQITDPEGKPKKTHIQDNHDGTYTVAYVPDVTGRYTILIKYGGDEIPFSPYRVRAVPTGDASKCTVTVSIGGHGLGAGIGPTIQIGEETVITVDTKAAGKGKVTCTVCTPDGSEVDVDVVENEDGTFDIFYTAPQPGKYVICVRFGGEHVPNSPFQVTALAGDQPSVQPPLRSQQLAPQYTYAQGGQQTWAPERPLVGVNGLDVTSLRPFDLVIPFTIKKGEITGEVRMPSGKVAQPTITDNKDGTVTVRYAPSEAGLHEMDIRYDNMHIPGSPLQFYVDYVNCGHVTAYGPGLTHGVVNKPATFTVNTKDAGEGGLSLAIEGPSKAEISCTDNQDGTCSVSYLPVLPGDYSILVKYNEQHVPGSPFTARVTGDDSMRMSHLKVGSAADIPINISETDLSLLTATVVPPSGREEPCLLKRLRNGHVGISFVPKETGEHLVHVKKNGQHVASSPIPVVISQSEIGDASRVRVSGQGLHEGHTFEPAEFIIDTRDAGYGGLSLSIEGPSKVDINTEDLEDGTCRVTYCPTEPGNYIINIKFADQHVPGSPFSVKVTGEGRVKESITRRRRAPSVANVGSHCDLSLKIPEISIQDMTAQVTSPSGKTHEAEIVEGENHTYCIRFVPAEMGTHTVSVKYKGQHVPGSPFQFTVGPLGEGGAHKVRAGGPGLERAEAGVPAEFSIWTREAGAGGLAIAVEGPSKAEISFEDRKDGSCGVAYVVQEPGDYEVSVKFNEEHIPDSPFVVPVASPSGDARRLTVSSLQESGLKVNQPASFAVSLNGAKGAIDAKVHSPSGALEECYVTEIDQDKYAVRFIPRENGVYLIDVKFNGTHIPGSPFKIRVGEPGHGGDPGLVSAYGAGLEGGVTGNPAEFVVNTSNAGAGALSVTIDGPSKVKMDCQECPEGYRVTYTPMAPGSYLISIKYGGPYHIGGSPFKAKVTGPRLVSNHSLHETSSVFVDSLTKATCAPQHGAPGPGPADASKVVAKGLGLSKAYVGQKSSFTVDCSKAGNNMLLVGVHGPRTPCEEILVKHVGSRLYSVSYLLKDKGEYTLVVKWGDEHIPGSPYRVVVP
UniProt O75369: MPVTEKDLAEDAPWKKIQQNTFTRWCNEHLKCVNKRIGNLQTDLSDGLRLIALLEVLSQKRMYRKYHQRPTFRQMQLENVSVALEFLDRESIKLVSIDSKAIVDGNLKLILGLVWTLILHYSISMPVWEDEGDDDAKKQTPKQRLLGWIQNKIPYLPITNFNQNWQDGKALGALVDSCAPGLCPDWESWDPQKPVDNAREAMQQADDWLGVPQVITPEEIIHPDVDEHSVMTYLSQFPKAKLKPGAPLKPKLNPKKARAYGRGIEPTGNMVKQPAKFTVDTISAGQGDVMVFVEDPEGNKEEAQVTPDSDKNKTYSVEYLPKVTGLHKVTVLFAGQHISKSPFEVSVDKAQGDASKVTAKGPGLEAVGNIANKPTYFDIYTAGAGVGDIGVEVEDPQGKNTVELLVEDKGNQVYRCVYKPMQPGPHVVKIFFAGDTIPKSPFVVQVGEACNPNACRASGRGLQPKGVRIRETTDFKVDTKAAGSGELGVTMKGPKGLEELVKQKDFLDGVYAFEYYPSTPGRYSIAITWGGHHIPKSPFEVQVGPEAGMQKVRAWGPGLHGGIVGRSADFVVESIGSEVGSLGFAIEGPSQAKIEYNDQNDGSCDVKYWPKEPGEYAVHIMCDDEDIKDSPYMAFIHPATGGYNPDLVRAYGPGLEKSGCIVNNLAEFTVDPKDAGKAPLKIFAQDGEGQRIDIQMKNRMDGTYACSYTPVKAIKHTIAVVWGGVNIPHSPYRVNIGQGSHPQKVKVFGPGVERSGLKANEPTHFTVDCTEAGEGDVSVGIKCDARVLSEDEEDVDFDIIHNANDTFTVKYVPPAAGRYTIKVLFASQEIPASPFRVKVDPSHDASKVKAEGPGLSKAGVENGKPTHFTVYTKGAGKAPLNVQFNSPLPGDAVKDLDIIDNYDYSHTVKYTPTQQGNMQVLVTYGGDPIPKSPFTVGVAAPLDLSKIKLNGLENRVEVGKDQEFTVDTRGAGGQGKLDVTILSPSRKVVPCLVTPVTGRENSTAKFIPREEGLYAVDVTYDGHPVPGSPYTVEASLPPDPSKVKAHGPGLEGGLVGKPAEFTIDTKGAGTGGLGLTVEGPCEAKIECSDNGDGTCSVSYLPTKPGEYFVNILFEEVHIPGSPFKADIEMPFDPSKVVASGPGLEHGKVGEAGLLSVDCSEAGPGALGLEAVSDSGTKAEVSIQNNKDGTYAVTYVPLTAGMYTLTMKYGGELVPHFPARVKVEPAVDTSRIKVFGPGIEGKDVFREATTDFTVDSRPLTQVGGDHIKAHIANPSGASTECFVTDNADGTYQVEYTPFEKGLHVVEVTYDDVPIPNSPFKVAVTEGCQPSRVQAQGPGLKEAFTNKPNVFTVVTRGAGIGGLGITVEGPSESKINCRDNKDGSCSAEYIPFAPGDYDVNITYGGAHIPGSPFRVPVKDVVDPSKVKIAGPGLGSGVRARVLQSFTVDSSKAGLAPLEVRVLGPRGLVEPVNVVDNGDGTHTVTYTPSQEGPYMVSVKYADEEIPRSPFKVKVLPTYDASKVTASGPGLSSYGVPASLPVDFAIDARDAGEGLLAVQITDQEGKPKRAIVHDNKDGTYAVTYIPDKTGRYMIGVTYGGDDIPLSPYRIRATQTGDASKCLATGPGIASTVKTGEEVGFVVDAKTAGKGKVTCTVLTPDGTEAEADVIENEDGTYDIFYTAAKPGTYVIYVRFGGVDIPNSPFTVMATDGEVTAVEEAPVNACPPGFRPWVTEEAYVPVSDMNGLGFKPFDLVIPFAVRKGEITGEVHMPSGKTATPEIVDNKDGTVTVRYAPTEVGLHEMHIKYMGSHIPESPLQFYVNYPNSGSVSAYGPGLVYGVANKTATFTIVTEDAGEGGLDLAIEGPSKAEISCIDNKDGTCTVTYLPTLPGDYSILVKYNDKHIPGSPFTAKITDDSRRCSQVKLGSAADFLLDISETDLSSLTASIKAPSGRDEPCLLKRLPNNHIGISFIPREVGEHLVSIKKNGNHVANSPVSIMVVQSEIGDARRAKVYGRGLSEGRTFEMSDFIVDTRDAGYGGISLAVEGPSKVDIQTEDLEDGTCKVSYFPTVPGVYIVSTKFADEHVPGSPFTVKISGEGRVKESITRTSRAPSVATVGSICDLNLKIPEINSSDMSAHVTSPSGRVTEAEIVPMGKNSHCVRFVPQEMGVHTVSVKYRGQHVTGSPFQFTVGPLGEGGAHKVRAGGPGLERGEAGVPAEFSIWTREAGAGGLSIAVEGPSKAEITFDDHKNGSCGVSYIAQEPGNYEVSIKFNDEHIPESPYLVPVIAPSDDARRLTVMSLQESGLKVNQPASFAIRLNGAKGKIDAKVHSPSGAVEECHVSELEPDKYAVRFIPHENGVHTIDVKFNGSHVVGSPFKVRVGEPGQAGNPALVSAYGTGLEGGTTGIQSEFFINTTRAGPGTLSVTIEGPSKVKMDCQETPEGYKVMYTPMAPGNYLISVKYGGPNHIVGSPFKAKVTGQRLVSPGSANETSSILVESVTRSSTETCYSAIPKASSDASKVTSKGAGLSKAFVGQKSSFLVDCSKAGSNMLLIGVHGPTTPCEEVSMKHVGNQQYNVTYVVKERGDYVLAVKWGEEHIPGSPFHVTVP
UniProt O43707: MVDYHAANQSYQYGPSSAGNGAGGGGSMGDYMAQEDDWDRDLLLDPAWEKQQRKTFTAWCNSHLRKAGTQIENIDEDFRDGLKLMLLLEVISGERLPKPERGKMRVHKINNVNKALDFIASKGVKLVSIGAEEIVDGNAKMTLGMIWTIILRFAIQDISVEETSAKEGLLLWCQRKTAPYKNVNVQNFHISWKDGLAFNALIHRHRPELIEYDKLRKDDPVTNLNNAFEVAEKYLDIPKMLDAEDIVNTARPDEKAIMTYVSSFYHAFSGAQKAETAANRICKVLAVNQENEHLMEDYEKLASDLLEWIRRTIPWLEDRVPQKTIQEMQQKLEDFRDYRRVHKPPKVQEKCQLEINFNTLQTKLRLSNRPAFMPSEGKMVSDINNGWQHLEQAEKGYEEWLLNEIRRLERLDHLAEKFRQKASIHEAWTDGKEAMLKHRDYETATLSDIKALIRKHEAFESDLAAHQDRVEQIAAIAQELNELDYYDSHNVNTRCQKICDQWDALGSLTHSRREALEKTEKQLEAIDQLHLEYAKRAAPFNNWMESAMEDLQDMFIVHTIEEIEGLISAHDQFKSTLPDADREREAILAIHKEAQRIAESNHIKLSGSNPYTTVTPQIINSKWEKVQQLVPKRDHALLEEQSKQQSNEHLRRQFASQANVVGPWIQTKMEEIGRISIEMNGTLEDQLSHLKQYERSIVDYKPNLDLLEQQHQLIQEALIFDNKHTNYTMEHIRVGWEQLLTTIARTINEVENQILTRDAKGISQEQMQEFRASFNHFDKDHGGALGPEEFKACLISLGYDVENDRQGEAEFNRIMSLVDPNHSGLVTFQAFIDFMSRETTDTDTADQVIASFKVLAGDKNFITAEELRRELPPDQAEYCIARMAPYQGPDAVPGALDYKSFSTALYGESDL

Biological target: CD147 (endogenous, HBMECs) (human (endogenous in HBMEC)) (UniProt P35613)
Test: affinity purification with mass spectrometry; CD147 immunoprecipitated from non-infected and infected HBMEC lysates, SDS-PAGE, in-gel trypsin digestion, nano-LC MALDI-TOF/TOF

## Actn1 (endogenous, HBMECs) (from UniProt P12814 1-892)
  binding: binds

## filamin A (endogenous, HBMECs) (from UniProt P21333 1-2647)
  binding: binds

## filamin B (endogenous, HBMECs) (from UniProt O75369 1-2602)
  binding: binds

## α-actinin-4 (endogenous, HBMECs) (from UniProt O43707 1-911)
  binding: binds
